# Measurements reported in the supplement of paper PMC12819154, “High-throughput peptide-centric local stability assay extends protein–ligand identification to membrane proteins, tissues and bacteria” (Nature Structural & Molecular Biology, 2025).
# Sequences of proteins named here, by UniProt entry; tags and fusion partners are left off. A change or cut given only in a name is not applied to a line headed by its entry.
# UniProt Q8NDC4: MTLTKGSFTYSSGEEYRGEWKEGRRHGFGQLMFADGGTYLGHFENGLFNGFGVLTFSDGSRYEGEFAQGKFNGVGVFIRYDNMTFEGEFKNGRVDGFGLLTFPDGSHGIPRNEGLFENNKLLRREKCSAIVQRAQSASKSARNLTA
# UniProt Q8NB25: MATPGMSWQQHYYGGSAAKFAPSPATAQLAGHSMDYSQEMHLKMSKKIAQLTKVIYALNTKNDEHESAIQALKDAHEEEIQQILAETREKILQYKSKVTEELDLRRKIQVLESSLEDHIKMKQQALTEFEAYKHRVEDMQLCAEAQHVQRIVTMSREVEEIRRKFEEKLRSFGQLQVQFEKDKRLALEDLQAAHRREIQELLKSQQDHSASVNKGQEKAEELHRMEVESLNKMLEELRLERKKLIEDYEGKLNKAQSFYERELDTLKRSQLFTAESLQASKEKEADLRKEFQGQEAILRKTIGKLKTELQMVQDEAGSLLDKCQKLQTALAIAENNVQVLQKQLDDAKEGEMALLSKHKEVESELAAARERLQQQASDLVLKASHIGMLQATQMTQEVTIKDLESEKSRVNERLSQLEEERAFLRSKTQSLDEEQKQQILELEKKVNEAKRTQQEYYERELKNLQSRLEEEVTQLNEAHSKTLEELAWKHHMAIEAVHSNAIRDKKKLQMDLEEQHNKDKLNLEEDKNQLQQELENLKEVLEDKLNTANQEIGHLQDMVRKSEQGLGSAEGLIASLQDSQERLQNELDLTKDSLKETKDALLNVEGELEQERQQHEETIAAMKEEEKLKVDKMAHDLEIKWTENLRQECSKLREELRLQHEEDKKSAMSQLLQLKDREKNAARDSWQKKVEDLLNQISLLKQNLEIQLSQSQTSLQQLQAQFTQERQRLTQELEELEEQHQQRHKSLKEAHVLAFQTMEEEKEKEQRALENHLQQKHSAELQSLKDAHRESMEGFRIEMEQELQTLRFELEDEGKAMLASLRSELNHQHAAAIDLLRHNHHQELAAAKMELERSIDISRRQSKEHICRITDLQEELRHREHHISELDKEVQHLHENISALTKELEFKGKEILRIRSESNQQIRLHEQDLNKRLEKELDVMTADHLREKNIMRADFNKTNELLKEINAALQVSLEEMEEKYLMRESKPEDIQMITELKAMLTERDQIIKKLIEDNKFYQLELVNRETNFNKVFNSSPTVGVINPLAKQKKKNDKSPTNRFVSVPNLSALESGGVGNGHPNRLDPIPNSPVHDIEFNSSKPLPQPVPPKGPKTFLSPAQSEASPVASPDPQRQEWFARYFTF
# UniProt Q8TAP6: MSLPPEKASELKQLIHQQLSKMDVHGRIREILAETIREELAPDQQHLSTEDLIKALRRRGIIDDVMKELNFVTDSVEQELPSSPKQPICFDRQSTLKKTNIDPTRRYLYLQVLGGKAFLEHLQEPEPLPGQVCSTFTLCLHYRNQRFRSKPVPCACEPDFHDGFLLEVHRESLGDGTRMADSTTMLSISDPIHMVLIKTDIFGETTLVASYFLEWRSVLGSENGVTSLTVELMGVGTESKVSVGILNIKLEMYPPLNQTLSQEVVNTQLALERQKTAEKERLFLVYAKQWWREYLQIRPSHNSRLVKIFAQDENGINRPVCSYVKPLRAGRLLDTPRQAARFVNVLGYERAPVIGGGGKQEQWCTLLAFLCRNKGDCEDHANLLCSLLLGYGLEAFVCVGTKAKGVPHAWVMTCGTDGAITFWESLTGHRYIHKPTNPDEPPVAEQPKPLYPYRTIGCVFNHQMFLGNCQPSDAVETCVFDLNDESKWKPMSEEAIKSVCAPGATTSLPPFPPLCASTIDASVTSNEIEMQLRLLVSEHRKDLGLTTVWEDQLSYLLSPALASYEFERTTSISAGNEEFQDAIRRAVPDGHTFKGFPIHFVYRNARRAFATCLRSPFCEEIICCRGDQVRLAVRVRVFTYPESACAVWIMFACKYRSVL
# UniProt Q8NBM4: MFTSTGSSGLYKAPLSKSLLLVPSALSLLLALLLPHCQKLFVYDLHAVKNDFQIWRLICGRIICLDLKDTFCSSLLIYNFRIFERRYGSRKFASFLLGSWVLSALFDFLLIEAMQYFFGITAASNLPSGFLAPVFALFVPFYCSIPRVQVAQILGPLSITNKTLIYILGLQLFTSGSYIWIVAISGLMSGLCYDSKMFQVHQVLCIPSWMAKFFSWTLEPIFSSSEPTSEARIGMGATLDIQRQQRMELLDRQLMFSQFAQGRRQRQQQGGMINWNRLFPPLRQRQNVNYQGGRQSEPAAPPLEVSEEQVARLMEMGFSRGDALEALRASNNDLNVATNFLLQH
# UniProt Q8NFF5: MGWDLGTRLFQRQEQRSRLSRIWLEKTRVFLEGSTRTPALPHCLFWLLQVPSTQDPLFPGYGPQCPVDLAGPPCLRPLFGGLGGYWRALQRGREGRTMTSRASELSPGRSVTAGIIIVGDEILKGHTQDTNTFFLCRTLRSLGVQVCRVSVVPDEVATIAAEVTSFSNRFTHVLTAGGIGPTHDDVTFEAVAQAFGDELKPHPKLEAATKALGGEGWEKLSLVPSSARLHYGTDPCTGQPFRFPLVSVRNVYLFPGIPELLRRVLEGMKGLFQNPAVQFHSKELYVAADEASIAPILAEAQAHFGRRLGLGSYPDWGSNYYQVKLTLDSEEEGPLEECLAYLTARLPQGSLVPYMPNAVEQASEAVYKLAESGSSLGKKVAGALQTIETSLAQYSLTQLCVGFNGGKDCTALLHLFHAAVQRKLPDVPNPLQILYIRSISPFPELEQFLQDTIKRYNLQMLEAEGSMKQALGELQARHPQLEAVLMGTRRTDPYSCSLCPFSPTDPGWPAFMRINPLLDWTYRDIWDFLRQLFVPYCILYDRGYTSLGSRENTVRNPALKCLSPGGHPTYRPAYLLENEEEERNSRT
# UniProt Q8NCN5: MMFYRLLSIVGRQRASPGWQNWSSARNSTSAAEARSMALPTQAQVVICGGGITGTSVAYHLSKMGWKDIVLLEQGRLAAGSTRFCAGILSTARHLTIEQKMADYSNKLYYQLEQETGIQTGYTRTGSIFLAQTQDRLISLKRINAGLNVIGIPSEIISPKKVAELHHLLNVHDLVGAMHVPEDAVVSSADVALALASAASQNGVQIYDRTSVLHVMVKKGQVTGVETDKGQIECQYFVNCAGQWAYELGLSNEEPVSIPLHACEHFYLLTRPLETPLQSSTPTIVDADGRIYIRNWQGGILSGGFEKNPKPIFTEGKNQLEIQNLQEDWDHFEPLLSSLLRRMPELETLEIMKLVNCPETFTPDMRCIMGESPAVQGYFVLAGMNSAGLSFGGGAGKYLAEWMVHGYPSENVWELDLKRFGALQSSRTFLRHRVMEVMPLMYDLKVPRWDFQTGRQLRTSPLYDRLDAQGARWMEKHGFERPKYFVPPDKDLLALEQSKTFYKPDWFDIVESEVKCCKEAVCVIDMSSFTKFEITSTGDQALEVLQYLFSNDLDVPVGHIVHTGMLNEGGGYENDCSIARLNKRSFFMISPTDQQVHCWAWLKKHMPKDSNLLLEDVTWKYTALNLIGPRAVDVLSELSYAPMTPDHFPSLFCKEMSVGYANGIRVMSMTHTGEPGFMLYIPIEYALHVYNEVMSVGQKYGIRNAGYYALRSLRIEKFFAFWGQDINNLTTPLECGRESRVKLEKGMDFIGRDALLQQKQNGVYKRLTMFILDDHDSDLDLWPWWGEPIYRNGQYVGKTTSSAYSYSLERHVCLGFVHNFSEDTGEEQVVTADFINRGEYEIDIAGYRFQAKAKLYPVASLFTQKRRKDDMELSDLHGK
# UniProt Q8TBB5: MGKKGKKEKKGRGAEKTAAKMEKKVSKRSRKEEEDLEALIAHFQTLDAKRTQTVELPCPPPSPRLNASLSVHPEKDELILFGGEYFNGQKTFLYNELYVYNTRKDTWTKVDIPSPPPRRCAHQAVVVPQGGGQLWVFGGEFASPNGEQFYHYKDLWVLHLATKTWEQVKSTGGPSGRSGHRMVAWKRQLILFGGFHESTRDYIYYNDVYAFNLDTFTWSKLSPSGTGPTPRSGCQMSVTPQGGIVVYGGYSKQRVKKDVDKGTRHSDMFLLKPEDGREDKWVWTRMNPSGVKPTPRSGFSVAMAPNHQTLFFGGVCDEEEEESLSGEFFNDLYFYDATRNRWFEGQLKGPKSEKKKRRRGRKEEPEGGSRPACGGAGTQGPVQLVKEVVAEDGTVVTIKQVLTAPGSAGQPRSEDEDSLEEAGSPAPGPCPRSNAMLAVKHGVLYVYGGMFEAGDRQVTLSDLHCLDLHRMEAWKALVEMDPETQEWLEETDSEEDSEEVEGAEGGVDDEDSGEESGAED
# UniProt Q8NBI5: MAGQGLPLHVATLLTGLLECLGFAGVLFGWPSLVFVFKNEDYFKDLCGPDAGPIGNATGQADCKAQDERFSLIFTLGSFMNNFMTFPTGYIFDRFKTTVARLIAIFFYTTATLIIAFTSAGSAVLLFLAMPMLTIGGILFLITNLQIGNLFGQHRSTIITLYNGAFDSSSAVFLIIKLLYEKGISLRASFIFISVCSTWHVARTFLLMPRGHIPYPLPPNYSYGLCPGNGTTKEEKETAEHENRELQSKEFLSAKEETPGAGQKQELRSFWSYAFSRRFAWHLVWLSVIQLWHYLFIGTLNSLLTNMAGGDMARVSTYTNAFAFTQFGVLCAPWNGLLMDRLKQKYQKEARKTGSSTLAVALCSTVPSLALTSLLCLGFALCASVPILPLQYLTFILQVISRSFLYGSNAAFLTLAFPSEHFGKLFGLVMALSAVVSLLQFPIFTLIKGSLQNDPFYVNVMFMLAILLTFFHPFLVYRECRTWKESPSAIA
# UniProt Q8N436: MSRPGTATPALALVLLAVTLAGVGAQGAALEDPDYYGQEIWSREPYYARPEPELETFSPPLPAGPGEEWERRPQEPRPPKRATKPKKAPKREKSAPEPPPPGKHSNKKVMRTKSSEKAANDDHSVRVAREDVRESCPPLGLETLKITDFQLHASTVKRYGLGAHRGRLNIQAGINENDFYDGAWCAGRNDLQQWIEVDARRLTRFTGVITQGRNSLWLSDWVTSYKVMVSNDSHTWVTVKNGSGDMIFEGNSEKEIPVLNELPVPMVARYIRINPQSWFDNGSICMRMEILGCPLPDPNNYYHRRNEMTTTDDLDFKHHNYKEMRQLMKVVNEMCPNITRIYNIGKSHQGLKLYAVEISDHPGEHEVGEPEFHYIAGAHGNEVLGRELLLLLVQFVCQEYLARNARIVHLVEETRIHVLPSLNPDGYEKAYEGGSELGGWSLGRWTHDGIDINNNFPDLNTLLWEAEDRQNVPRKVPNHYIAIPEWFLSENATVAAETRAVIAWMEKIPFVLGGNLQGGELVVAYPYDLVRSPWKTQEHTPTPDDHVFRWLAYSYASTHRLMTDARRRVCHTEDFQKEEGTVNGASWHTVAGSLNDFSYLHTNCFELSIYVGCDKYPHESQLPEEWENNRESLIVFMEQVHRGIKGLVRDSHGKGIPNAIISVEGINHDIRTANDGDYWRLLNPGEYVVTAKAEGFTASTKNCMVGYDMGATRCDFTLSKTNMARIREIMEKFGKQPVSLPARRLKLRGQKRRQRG
# UniProt Q8N5M9: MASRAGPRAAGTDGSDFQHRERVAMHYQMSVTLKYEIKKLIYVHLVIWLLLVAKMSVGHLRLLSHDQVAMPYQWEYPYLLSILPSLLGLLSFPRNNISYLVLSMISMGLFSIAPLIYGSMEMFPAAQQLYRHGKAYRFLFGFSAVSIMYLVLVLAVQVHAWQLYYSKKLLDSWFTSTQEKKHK
# UniProt Q8NA54: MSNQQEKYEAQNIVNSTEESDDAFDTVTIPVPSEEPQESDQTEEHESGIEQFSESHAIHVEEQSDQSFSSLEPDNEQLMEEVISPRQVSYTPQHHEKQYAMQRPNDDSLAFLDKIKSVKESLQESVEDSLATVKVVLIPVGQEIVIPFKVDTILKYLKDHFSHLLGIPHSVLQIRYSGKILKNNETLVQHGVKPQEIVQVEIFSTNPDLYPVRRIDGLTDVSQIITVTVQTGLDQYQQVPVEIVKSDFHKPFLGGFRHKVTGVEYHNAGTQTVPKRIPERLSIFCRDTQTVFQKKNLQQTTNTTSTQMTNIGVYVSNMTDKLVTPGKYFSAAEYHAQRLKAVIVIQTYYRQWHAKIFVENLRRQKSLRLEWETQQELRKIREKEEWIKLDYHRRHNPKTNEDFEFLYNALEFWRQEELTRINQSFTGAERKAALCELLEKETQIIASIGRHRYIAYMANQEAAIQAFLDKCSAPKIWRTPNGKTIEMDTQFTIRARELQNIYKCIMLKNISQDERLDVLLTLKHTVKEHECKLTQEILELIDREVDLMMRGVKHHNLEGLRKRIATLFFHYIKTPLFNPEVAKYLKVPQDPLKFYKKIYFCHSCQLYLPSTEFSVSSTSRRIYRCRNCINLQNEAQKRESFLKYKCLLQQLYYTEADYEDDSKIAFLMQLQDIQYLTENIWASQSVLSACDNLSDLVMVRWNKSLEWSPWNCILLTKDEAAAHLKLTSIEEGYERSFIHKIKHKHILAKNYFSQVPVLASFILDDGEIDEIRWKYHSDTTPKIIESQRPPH
# Some of the results follow. Most values lie at the level of the controls, where differences are scatter.
# Compound: CN[C@@H]1C[C@H]2O[C@@](C)([C@@H]1OC)n1c3ccccc3c3c4c(c5c6ccccc6n2c5c31)C(=O)NC4 [staurosporine]
# Assay: log2 fold change of tryptic peptide abundance, ligand vs vehicle (limited proteolysis) (log2 ratio); higher = more trypsin-susceptible (destabilized)
# Details: ligand concentration: 20 uM; sample: K562 cleared lysate; digestion: 4 min, 22 C (HT-PELSA RT4min, Orbitrap Astral)
row,Target,log2 fold change
1,"PPFIBP2 (peptide sequence: LSGATPNGEAAK, peptide start residue: 429) (UniProt Q8ND30)",-0.178
2,"UniProt Q8NDC4 (peptide sequence: FNGVGVFIR, peptide start residue: 71)",-0.0636
3,"UniProt Q8NB25 (peptide sequence: LQNELDLTK, peptide start residue: 583)",0.0628
4,"UniProt Q8NB42 (peptide sequence: THIGEKPYECK, peptide start residue: 181)",0.338
5,"UniProt Q8TAT5 (peptide sequence: VDHVMDSVAR, peptide start residue: 306)",0.698
6,"PPHLN1 (peptide sequence: YYSHVDYR, peptide start residue: 52) (UniProt Q8NEY8)",0.721
7,"ANKRD52 (peptide sequence: GSTECVEVLTAHGASALIK, peptide start residue: 629) (UniProt Q8NB46)",0.503
8,"UniProt Q8NG31 (peptide sequence: TWVQEEEDIHKEK, peptide start residue: 1789)",-0.283
9,"CBR4 (peptide sequence: VNVVAPGFVHTDMTK, peptide start residue: 173) (UniProt Q8N4T8)",0.189
10,"KRI1 (peptide sequence: SEQEELR, peptide start residue: 562) (UniProt Q8N9T8)",-0.219
11,"MCPH1 (peptide sequence: FLSNLSKEEINLQR, peptide start residue: 291) (UniProt Q8NEM0)",-0.187
12,"UniProt Q8N587 (peptide sequence: AVTASSHLK, peptide start residue: 233)",0.194
13,"NGDN (peptide sequence: FKPHPSNMMSK, peptide start residue: 130) (UniProt Q8NEJ9)",0.812
14,"ZNF511 (peptide sequence: HLYLQDVIMQVADVPEKPR, peptide start residue: 58) (UniProt Q8NB15)",0.409
15,"CEP76 (peptide sequence: EILAETIR, peptide start residue: 30) (UniProt Q8TAP6)",0.165
16,"EXOC6 (peptide sequence: EISMSDLK, peptide start residue: 194) (UniProt Q8TAG9)",0.571
17,"HJURP (peptide sequence: LPSSPLGCR, peptide start residue: 639) (UniProt Q8NCD3)",0.183
18,"UniProt Q8NF99 (peptide sequence: ASQESTDIHLQPLK, peptide start residue: 158)",0.0988
19,"UBAC2 (peptide sequence: QLMFSQFAQGR, peptide start residue: 253) (UniProt Q8NBM4)",-0.24

# 3 entries picked at random from those above, as already listed:
row,Target,log2 fold change
4,"UniProt Q8NB42 (peptide sequence: THIGEKPYECK, peptide start residue: 181)",0.338
16,"EXOC6 (peptide sequence: EISMSDLK, peptide start residue: 194) (UniProt Q8TAG9)",0.571
10,"KRI1 (peptide sequence: SEQEELR, peptide start residue: 562) (UniProt Q8N9T8)",-0.219

# Next part:

row,Target,log2 fold change
1,"UniProt Q8NHK3 (peptide sequence: KNAAVMDQEPAGDRTVNR, peptide start residue: 368)",0.258
2,"PDCD7 (peptide sequence: DRQWLEAVFGTPR, peptide start residue: 143) (UniProt Q8N8D1)",-0.366
3,"FLAD1 (peptide sequence: DCTALLHLFHAAVQR, peptide start residue: 408) (UniProt Q8NFF5)",0.401
4,"UniProt Q8N6F7 (peptide sequence: ILIFEKR, peptide start residue: 51)",0.263
5,"PCSK9 (peptide sequence: VLNAACQR, peptide start residue: 296) (UniProt Q8NBP7)",0.233
6,"UniProt Q8N6I1 (peptide sequence: HYLENYPIAPGR, peptide start residue: 159)",0.269
7,"PDPR (peptide sequence: RKDDMELSDLHGK, peptide start residue: 867) (UniProt Q8NCN5)",-0.0684
8,"KLHDC4 (peptide sequence: LSPSGTGPTPR, peptide start residue: 221) (UniProt Q8TBB5)",-0.405
9,"UniProt Q8NE31 (peptide sequence: LLEVLISK, peptide start residue: 1008)",-0.294
10,"ARID1B (peptide sequence: GSPVSSLPAVGK, peptide start residue: 1154) (UniProt Q8NFD5)",0.306
11,"SPATA5 (peptide sequence: REGAQNEVEKR, peptide start residue: 462) (UniProt Q8NB90)",0.286
12,"SLC43A3 (peptide sequence: EETPGAGQK, peptide start residue: 256) (UniProt Q8NBI5)",-0.333
13,"TSPYL6 (peptide sequence: SESEVIAEGK, peptide start residue: 137) (UniProt Q8N831)",0.206
14,"UniProt Q8N436 (peptide sequence: IREIMEK, peptide start residue: 726)",0.104
15,"JAGN1 (peptide sequence: AAGTDGSDFQHR, peptide start residue: 9) (UniProt Q8N5M9)",-0.209
16,"UniProt Q8NCP5 (peptide sequence: GLDAGQENNSNCNFTSR, peptide start residue: 140)",-0.255
17,"IQUB (peptide sequence: QYAMQRPNDDSLAFLDKIK, peptide start residue: 98) (UniProt Q8NA54)",-0.191
18,"FBXO22 (peptide sequence: VVAEELENVR, peptide start residue: 87) (UniProt Q8NEZ5)",-0.168
